The values below come from PubChem BioAssay AID2685 (National Center for Advancing Translational Sciences (NCATS), 2010).

The other results are listed elsewhere or left out. The main result of the screen is listed elsewhere. These columns were measured beside it and carry no call. Compounds called inactive in the main read-out are mostly missing here. Potencies come from curve fits of mixed quality, noted in brackets.

The assay is described as follows: qHTS Assay for Lipid Storage Modulators in Drosophila S3 Cells.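 For cell number change: cells counted by Cell Tracker Red CMTPX staining in the red channel.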 The note with it: BODIPY lipid droplet fluorescence, 18-24 h; for cell number change: measured here: cell count max response, cells fed with added oleic acid. The procedure, abridged:
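Drosophila S3 cells loaded with oleic acid (400 uM, as added) and compounds at several concentrations; lipid droplets imaged by 488-nm laser-scanning cytometry, 500–530 nm intensity and object ratio to cell channel. Percent activity normalized to 20 uM Triacsin C.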

Setting [1] is: measured here: cell number channel AC50, cells fed with added oleic acid.
Setting [2] is: measured here: lipid fluorescence (Fed channel) AC50, cells fed with added oleic acid.

With `Cc1ccc(NC(=O)COc2ccccc2[N+](=O)[O-])nc1`, the cell number change is 1.96%.

As usually defined, the AC50 is the midpoint of the concentration-response curve, whichever way the signal moves. A higher AC50 goes with weaker potency. On to `COc1ccc(NC(=O)Cn2nnc(-c3ccccc3NS(=O)(=O)c3ccc(OC)cc3)n2)cc1`, for which the cell number change is -39.9%. The AC50 under setting [1] was 16.4 µM [falling, single point]. The AC50 under setting [2] is 2.91 µM [falling, full curve].

On to `CCOC(=O)C1=C(C)NC2=C(C(=O)CCC2)C1c1cn(Cc2ccc(Cl)cc2Cl)nc1-c1ccccc1` (stereo not given), for which the cell number change is -18.4%. Moreover, under setting [2], the half-maximal activity concentration (AC50) is 0.411 µM [rising, single point].

For `COc1cc(C2C(C#N)=C(N)Oc3n[nH]c(C)c32)cc2c1OCO2` (stereo not given), the cell number change was -23.3%. The half-maximal activity concentration (AC50) under setting [1] was 2.06 µM [falling, full curve, poor fit].

Take `COc1ccc2c(=O)c3c(=O)n(Cc4ccco4)c(C4CCCCC4)nc3oc2c1`: the cell number change was 35.4%. Also, under setting [1], the AC50 is 7.31 µM [rising, partial curve, poor fit].

Consider `COc1ccc(/C=N/NC(=O)c2ccco2)cc1Cn1nc(C)cc1C`, for which the cell number change came out at 13.5%. Besides, under setting [2], the AC50 was 10.3 µM [rising, partial curve].

As for `O=c1c2ccccc2nc(-c2ccoc2)n1CCc1ccccc1`, the cell number change is 101%. Moreover, the half-maximal activity concentration (AC50) under setting [1] is 18.4 µM [rising, single point]. The half-maximal activity concentration (AC50) under setting [2] was 18.4 µM [rising, single point].

For `CCCn1c(C(C)Nc2nc(-c3ccc(Cl)c([N+](=O)[O-])c3)cs2)nc2cc(Cl)c(N3CCCCC3)cc21` (stereo not given), the cell number change is -5.5%. The concentration at half-maximal activity (AC50) under setting [2] is 29.1 µM [rising, single point].

As to `Cc1ccc(C(=O)Nc2nc3ccccc3n3nnnc23)cc1`, the cell number change was -23.5%. Also, under setting [2], the AC50 is 29.1 µM [falling, single point].

With `CC(C)c1nc(SCC(=O)Nc2ccc(N3CCOCC3)cc2)c2ccccc2n1`, the cell number change is -43.7%. Under setting [1], the AC50 was 32.6 µM [falling, single point]. In addition, the AC50 under setting [2] is 20.6 µM [falling, single point].

With `O=C(CCN1C(=O)C2CCCCC2C1=O)Nc1nc(-c2ccccc2)cs1` (stereo not given), the cell number change was -29.6%. The concentration at half-maximal activity (AC50) under setting [2] was 29.1 µM [falling, single point].

With `Cc1cc(C)c(S(=O)(=O)Nc2cccc(S(=O)(=O)N3CCOCC3)c2)c(C)c1`, the cell number change is -7.05%. Also, the half-maximal activity concentration (AC50) under setting [2] was 7.31 µM [falling, partial curve].

For the compound `CC12CCC(=O)N1C(C(=O)Nc1cccc(S(=O)(=O)N3CCCCC3)c1)CS2` (stereo not given), the cell number change came to 66.5%. In addition, the AC50 under setting [1] was 20.6 µM [rising, partial curve]. Further, the AC50 under setting [2] was 4.11 µM [rising, single point].

For the compound `CC1CC(C)CN(C(=O)c2ccc3ncsc3c2)C1` (stereo not given), the cell number change is -0.497%. The AC50 under setting [2] is 0.411 µM [rising, partial curve, poor fit].

Turning to `CCOC(=O)C1CCN(c2ccc(-c3cccs3)nn2)CC1`, the cell number change is 20.6%. Under setting [2], the concentration at half-maximal activity (AC50) was 16.4 µM [rising, single point].

Consider `Cc1cc(C)cc(-n2c(C)cc(/C=N/NC(=O)CSc3ncccn3)c2C)c1`, for which the cell number change is 11.3%. Moreover, under setting [2], the AC50 was 0.116 µM [rising, full curve, poor fit].

Turning to `CC(Oc1ccc(F)cc1)C(O)CCN(C)C` (stereo not given), the cell number change was -41.6%.

In the case of `COc1ccc(NC(=O)CSc2nc3c(c(=O)n2-c2ccccc2)SCC3)c(OC)c1`, the cell number change was determined as 8.36%. For the same compound, the concentration at half-maximal activity (AC50) under setting [2] is 4.61 µM [rising, full curve].

With `COCCNC(=O)CSc1nc2ccccc2c(=O)n1CCCC(=O)NCc1ccccc1`, the cell number change was 5.09%. Further, the AC50 under setting [2] was 1.84 µM [rising, full curve].

As to `COc1cc(CNCc2cccnc2)ccc1OCc1ccccc1`, the cell number change stood at 109%. For the same compound, under setting [1], the half-maximal activity concentration (AC50) is 1.03 µM [rising, partial curve]. The concentration at half-maximal activity (AC50) under setting [2] is 18.4 µM [rising, partial curve].

As to `CC(C)Cc1nnc(NC(=O)CCC(=O)NC2CCCc3ccccc32)s1` (stereo not given), the cell number change amounted to 11.9%. Under setting [2], the AC50 is 0.00517 µM [rising, full curve, poor fit].

On to `Cn1cccc1C(=O)NNC(=O)c1ccccc1Br`, for which the cell number change was 75%. For the same compound, the concentration at half-maximal activity (AC50) under setting [1] is 29.1 µM [rising, single point]. Moreover, the concentration at half-maximal activity (AC50) under setting [2] is 0.731 µM [rising, full curve, poor fit].

As to `O=C(COc1ccccc1)OCC(=O)c1ccc(O)cc1O`, the cell number change is -7.96%. The half-maximal activity concentration (AC50) under setting [2] was 0.058 µM [falling, full curve, poor fit].

As to `CCOC(=O)COc1ccc(S(=O)(=O)NCc2ccco2)cc1`, the cell number change was -9.99%. Besides, the AC50 under setting [2] was 11.6 µM [falling, single point].

As for `Cc1ccc(NC(=O)COc2cccc(-n3cnnn3)c2)cc1[N+](=O)[O-]`, the cell number change is 404%. Under setting [1], the AC50 was 25.9 µM [rising, single point]. Under setting [2], the AC50 is 0.58 µM [rising, single point].

Turning to `Nc1cc(=O)[nH]c(SCc2cccc3ccccc23)n1`, the cell number change came out at 24.3%. Besides, under setting [2], the concentration at half-maximal activity (AC50) is 29.1 µM [rising, single point].

As for `COc1ccc([N+](=O)[O-])cc1COc1cc(C)cc2oc(=O)cc(-c3ccccc3)c12`, the cell number change came to 10.2%. Besides, under setting [2], the AC50 is 23.1 µM [falling, single point].

In the case of `O=C(CSc1nnc(COc2cccc3cccnc23)o1)N1CCc2ccccc21`, the cell number change is -18.7%. The half-maximal activity concentration (AC50) under setting [2] is 7.31 µM [falling, single point].

Take `COCCCn1c(=O)/c(=C\c2ccccc2OC(C)C)s/c1=C(/C#N)C(=O)Nc1ccc(C(=O)O)cc1`: the cell number change was -19.6%. The concentration at half-maximal activity (AC50) under setting [2] was 29.1 µM [falling, single point].

Take `CCOc1ccc2nc(NC(=O)c3ccc(OCC4CCCO4)cc3)sc2c1` (stereo not given): the cell number change is -46.4%. Moreover, the AC50 under setting [1] was 18.4 µM [falling, single point]. In addition, under setting [2], the AC50 is 16.4 µM [falling, single point].

As for `CCCCCC(/C=N/Nc1ccc(S(=O)(=O)N2CCOCC2)cc1[N+](=O)[O-])=C\c1ccccc1`, the cell number change was -91.3%. Further, the half-maximal activity concentration (AC50) under setting [1] is 9.2 µM [falling, partial curve].

For `O=C(CN1CCCc2ccccc21)NC(=O)NC1CCCCC1`, the cell number change is -5.85%. Moreover, the half-maximal activity concentration (AC50) under setting [2] was 0.651 µM [falling, full curve].

Consider `O=S(=O)(Cc1ccc(Cl)cc1)N1CCN(Cc2ccc3c(c2)OCO3)CC1`, for which the AC50 runs as follows: under setting [1], 1.84 µM [rising, partial curve]; under setting [2], 3.66 µM [rising, partial curve, poor fit].

As for `CC1CCC(NC(=O)c2cc(S(=O)(=O)N(C)C)ccc2N2CCCC2)CC1` (stereo not given), the cell number change was -13%.

As for `Brc1cccc(OCCSc2ncccn2)c1`, the cell number change stood at 108%. Also, the half-maximal activity concentration (AC50) under setting [1] was 29.1 µM [rising, single point].

As for `CCOc1ccc2nc(NC(=O)CSc3nnnn3C3CCCCC3)sc2c1`, the cell number change was -17.7%. Further, under setting [1], the half-maximal activity concentration (AC50) was 2.91 µM [rising, single point].

Consider `CC(C)[C@H](NS(=O)(=O)c1ccc2c(c1)OCCO2)C(=O)OCC(=O)Nc1ccccc1`, for which the cell number change stood at 0.141%. In addition, the AC50 under setting [2] was 3.66 µM [rising, full curve].

Take `O=C(Cc1ccc(Br)cc1)Nc1cccc(-c2cn3c(n2)SCC3)c1`: the cell number change is 23.2%.

Regarding `CCn1c(SCC(=O)Nc2nc3ccccc3s2)nc2c(c1=O)SC(C)C2` (stereo not given), the cell number change is -23.9%. For the same compound, under setting [2], the concentration at half-maximal activity (AC50) was 0.58 µM [falling, partial curve, poor fit].

With `CCOc1ccc(N2CC(C(=O)Nc3cccnc3)CC2=O)cc1` (stereo not given), the cell number change turned out to be 0.552%.

Take `Oc1c(Cl)cc(Cl)cc1C=Nc1ccccc1N1CCCC1`: the cell number change was -15.2%. Moreover, the AC50 under setting [1] is 4.11 µM [falling, single point]. Moreover, under setting [2], the AC50 is 2.91 µM [falling, full curve, poor fit].

For `COc1ccc(CNC(=O)C(CC(C)C)NC(=O)c2ccccc2C)cc1` (stereo not given), the cell number change came to 10.8%.

For the compound `Cc1ccsc1C(=O)NNC(=O)c1cccc(S(=O)(=O)N2CCCC2)c1`, the cell number change came out at 1.61%. For the same compound, under setting [2], the concentration at half-maximal activity (AC50) was 11.6 µM [falling, partial curve, poor fit].

With `CC(C)(C)C(=O)N1CCN(c2ccnc3cc(Cl)ccc23)CC1`, the cell number change was -7.09%. The AC50 under setting [2] was 8.2 µM [falling, partial curve].

Take `Cc1cccc(NC(=O)c2cc3c([nH]c4ccccc43)c(C)n2)c1C`: the cell number change was -14.5%. For the same compound, the concentration at half-maximal activity (AC50) under setting [1] was 2.06 µM [falling, partial curve].

As for `Cc1cccc(N2CCN(C(=O)c3ccc4c(c3)OCCO4)CC2C)c1` (stereo not given), the cell number change was -19.4%. For the same compound, the concentration at half-maximal activity (AC50) under setting [1] was 0.116 µM [falling, full curve, poor fit]. In addition, the AC50 under setting [2] is 10.3 µM [falling, partial curve].

On to `FC(F)(F)c1nc(=S)c2ccccc2[nH]1`, for which the cell number change was -37.3%. Also, under setting [1], the half-maximal activity concentration (AC50) was 29.1 µM [falling, single point]. In addition, the AC50 under setting [2] is 29.1 µM [falling, single point].

With `Cc1ccccc1NC(=O)c1cccc(C(F)(F)F)c1`, the cell number change stood at 13.5%. In addition, the AC50 under setting [2] was 6.51 µM [rising, partial curve].

Consider `CCOC(=O)C1(CCSC)NC(c2ccco2)C2C(=O)N(C)C(=O)C21` (stereo not given), for which the AC50 under setting [1] was 0.58 µM [rising, single point].

With `O=C(Nc1nccs1)C1CC=CCC1C(=O)OCC(F)(F)C(F)F` (stereo not given), the cell number change was -31.4%. In addition, under setting [1], the AC50 was 5.17 µM [falling, full curve]. Besides, the AC50 under setting [2] is 6.51 µM [falling, full curve].

In the case of `COC(=O)c1nc(NC(=O)c2ccc(C(C)(C)C)cc2)n[nH]1`, the cell number change came to 0.855%. Moreover, under setting [2], the concentration at half-maximal activity (AC50) was 29.1 µM [falling, partial curve, poor fit].

Turning to `Cc1cc(Cl)c(OCCOCCN2CCCC(C)C2)c(Br)c1` (stereo not given), the cell number change came out at 14.6%. Besides, under setting [2], the AC50 is 0.164 µM [rising, full curve].

Take `COc1ccc(-n2ccnc(SCC(=O)NCc3ccccc3Cl)c2=O)cc1`: the cell number change is -54.1%. Besides, the AC50 under setting [1] is 1.84 µM [rising, partial curve]. Moreover, the AC50 under setting [2] was 3.66 µM [rising, partial curve].

As for `CC(CC(F)(F)F)N1CCC(n2nccc2NC(=O)CCOc2ccccc2)CC1` (stereo not given), the cell number change is -36%. Also, the AC50 under setting [1] is 14.6 µM [falling, partial curve].

On to `CCOC(=O)CN1C(=O)CSc2ccc(S(=O)(=O)N3CCCC3)cc21`, for which the cell number change is 23%. For the same compound, the AC50 under setting [2] is 0.13 µM [falling, full curve, poor fit].

As to `OCCNc1nc(NCCC2=CCCCC2)nc(N2CCOCC2)n1`, the cell number change was -20.9%. Besides, under setting [2], the AC50 was 29.1 µM [falling, single point].

As for `N/C(CCS(=O)(=O)c1ccc(Cl)cc1)=N\OC(=O)c1ccc(Cl)cc1`, the cell number change was -15.2%. Further, under setting [2], the half-maximal activity concentration (AC50) is 3.66 µM [falling, full curve].
